# From PubChem BioAssay AID588497 (NMMLSC, 2011)
# About 780 (0.22%) of roughly 360,000 compounds were called active. Inconclusive results, whose numbers are uncertain, are shown with a selection of clear calls. Rule as the data show it: active = inhibition above about 35% (passing the limit was not always enough); inconclusive = no clear call, values can overlap the other calls.
# Test system: Botulinum neurotoxin type F light chain protease (Clostridium botulinum)
# Assay: BoNT/F light chain protease inhibitors, primary screen, biochemical, flow cytometry, MLPCN library (AID 588497); also: plate controls were buffer without enzyme for full effect and enzyme alone for no effect
# Conditions: Multiplex microsphere protease cleavage assay, at 10 µM, stronger effect = higher value
row,SMILES,inhibition
1,O=[N+]([O-])c1ccc(Sc2ncccn2)c([N+](=O)[O-])c1,inconclusive: 13.2%
2,O=C(NC(c1ccc(Cl)cc1)c1ccsc1)C1CCN(Cc2cccc(Cl)c2)CC1 (stereo unspecified),inactive: -7.8%
3,COc1ccc(-n2c(=O)c3c4c(sc3n3c(=S)[nH]nc23)CCC4)cc1,inconclusive: 16.5%
4,CSc1ccc(CNC(=O)c2c(C)noc2C)s1,inconclusive: 17.4%
5,Cc1noc(C)c1S(=O)(=O)N1CCC(Cc2ccccc2)CC1,inconclusive: -4.5%
6,Cc1cccc(CS(=O)(=O)c2ncc(CO)n2C)c1,inactive: -0.5%
7,CCN(CC)CCCn1c2c(c(SCC(=O)Nc3ccccc3Cl)nc1=O)CCC2,inconclusive: 0.3%
8,CCCc1cc(Nc2ccccc2C)n2ncnc2n1,inconclusive: -13.5%
9,COc1ccccc1-c1nn2c(=O)cc(C)nc2s1,inconclusive: 4%
10,O=C(Cc1ccccc1)Nc1ccc(NC(=O)Cc2ccccc2)c(Cl)c1,inconclusive: -15%
11,CNC(=S)N/N=C/c1c(C(=O)OC)cnn1-c1ccc(F)cc1F,inconclusive: 12.1%
12,CCOc1ccc(NC(=O)CN2CCc3cc4c(cc3C2)OCCCO4)cc1OCC,inconclusive: -9.4%
13,O=C(OCC(=O)N1CCN(c2ccccc2)CC1)c1nc(Cl)ccc1Cl,inconclusive: -3.5%
14,CCOC(=O)Cn1c(=O)n(CC(=O)OCC)c2ccccc21,inactive: 17%
15,CCN1CCN(CCC(=O)Nc2cccc(C)c2)CC1,inconclusive: -41.2%
16,Cc1ccc(OC(C)C(=O)Nc2ccc3c(c2)n(C)c(=O)n3C)c(C)c1 (stereo unspecified),inconclusive: 4.8%
17,O=C1c2ccc(-c3ccc4c(c3)C(=O)N(CCCO)C4=O)cc2C(=O)N1CCCO,inconclusive: 49.7%
18,Cc1nn(-c2ccccc2)nc1C(=O)OCC(=O)N1CCC(C)CC1,inactive: 2.1%
19,COc1cc(-c2noc(CCCC(=O)Nc3ccc(C(N)=O)cc3)n2)cc(OC)c1OC,inactive: -3.9%
20,COc1ccc(/C=C(\C#N)C(=O)NCc2ccccc2)cc1,inactive: 9.5%
21,CC1Cc2ccccc2N1C(=O)c1ccc2nccnc2c1 (stereo unspecified),inconclusive: 1.8%
22,CNc1cccc(-c2cccc(O)c2)n1,inactive: -0.5%
23,COc1cccc(CC(=O)NC2CCCN(Cc3ccc(Cl)cc3)C2)c1 (stereo unspecified),inconclusive: -8.5%

row,SMILES,inhibition
1,Cn1c(O)c(C(=Nc2ccc(F)cc2)c2ccccc2Cl)c(=O)n(C)c1=O,inconclusive: -30.3%
2,CC(C)CC(C(=O)Nc1ccccc1)N1C(=O)C2C3C=CC(C3)C2C1=O (stereo unspecified),inactive: 5.1%
3,O=C(Nc1ccncc1)c1ccc(Cl)c(S(=O)(=O)N2CCCCC2)c1,inactive: 15.5%
4,O=C(CSc1nc(O)cc(=O)n1-c1ccccc1)Nc1nc2ccccc2s1,inconclusive: 10.6%
5,Cc1c(N(C)S(=O)(=O)c2ccc(Cl)c(C(=O)NCC(C)(C)N3CCOCC3)c2)c(=O)n(-c2ccccc2)n1C,inactive: -1.9%
6,O=C(NCCN1CCNCC1)c1ccccc1O,inconclusive: -3.1%
7,CC(CCN1CCN(CCO)CC1)c1ccccc1 (stereo unspecified),inconclusive: 29%
8,COc1ccc(CC(=O)NCC2CCCN(Cc3ccc(OC)cc3F)C2)cc1 (stereo unspecified),inconclusive: -5.3%
9,COc1cc(/C=C2\CCOC2=O)cc(OC)c1OC,inconclusive: -3.8%
10,CC(C)(C)c1ccc(OCCNC(=O)c2ncn[nH]2)cc1,inconclusive: 34.3%
11,O=C(Nc1ccc2c(c1)OCO2)C1Cc2c(-c3ccncc3)ccnc2O1 (stereo unspecified),inactive: 4.5%
12,CC(C)Sc1n[nH]c(=O)n1-c1cccc(C(F)(F)F)c1,inconclusive: 33.2%
13,Cc1cccc(/N=C/c2c(O)[nH]c3ccccc23)n1,inactive: -7.6%
14,CCN(CC)CCN(CC(=O)Nc1c(C)cc(C)cc1C)C(=O)c1ccccc1,inconclusive: -18%
15,Cc1cccc(Nc2nc(NCCCN3CCOCC3)nc(N)c2[N+](=O)[O-])c1,inactive: 12.2%
16,CCCn1c(=O)c(C(=O)NCc2ccc3c(c2)OCO3)c(O)c2ccccc21,inconclusive: 25.7%
17,Cc1cc(C(F)(F)F)n2nc(-c3cccs3)cc2n1,inconclusive: 26.7%
18,Clc1ccccc1OCCCCN1CCNCC1,inconclusive: 64.4%
19,Nc1nc(Nc2ccc(Cl)cc2)nc(NCc2ccco2)c1[N+](=O)[O-],inconclusive: -19.9%
20,O=S(=O)(c1ccc(N2CCC(c3ccc(Cl)cc3)=N2)cc1)N(CCO)CCO,inactive: 9.5%
21,C=CCNC(=S)N/N=C/c1ccc(OCc2ccccc2Cl)cc1,inactive: -3.6%
22,COc1ccccc1NC(=O)C1CCN(C(=O)C2CC(=O)N(c3ccc(C)cc3)C2)CC1 (stereo unspecified),inactive: -10.6%
23,O=C(Oc1ccc(N(Cc2cccs2)C2=NS(=O)(=O)c3ccccc32)cc1)c1ccc(Cl)cc1,inactive: -15.3%

# Sorted by number of heavy atoms (largest number first): some entries from above
row,SMILES,inhibition
5,Cc1c(N(C)S(=O)(=O)c2ccc(Cl)c(C(=O)NCC(C)(C)N3CCOCC3)c2)c(=O)n(-c2ccccc2)n1C,inactive: -1.9%
1,Cn1c(O)c(C(=Nc2ccc(F)cc2)c2ccccc2Cl)c(=O)n(C)c1=O,inconclusive: -30.3%
3,O=C(Nc1ccncc1)c1ccc(Cl)c(S(=O)(=O)N2CCCCC2)c1,inactive: 15.5%
10,CC(C)(C)c1ccc(OCCNC(=O)c2ncn[nH]2)cc1,inconclusive: 34.3%
13,Cc1cccc(/N=C/c2c(O)[nH]c3ccccc23)n1,inactive: -7.6%
18,Clc1ccccc1OCCCCN1CCNCC1,inconclusive: 64.4%

# Following part:

row,SMILES,inhibition
1,COc1cc(C2Nc3cccc4cccc(c34)N2)ccc1O,inconclusive: -110%
2,COc1ccc(OCC(O)CN2CC(C)OC(C)C2)cc1 (stereo unspecified),inconclusive: 40.1%
3,O=C(O)c1cc(N/N=C/c2ccc3c(c2)OCCO3)ccc1Cl,active: 37.8%
4,Cc1cc(=O)oc(C)c1C(=O)Nc1ccc(F)cc1,inconclusive: -2.3%
5,Cc1ccc2c(c1)C1(OCCCO1)C(=O)N2CC#N,inconclusive: 7.2%
6,CCOCCc1nnc(NC(=O)CCc2ccccc2)s1,inactive: 7.8%
7,CCCn1cc(CN2CCC(n3nccc3NC(=O)CCOc3ccccc3)CC2)c(C)n1,inactive: -3%
8,Cc1cc(C)c(C#N)c(SCCN2CCOCC2)n1,inconclusive: 51.3%
9,CC(=O)Nc1ccc(S(=O)(=O)NCCC(=O)NCc2ccco2)cc1,inactive: 0.7%
10,CC(C)n1c(CN2CCN(Cc3ccccc3)CC2)nc2ccccc21,inconclusive: -10.9%
11,CCC(=O)N1c2ccccc2NC2=C(C(=O)CC(C)(C)C2)C1c1ccc(O)c(OC)c1 (stereo unspecified),inactive: 1.4%
12,COc1ccc(-c2nc(CC(=O)O)cs2)cc1,inconclusive: 11.8%
13,Cc1[nH]c(=O)[nH]c(=O)c1CSc1nnc([C@@H](NC(=O)OC(C)(C)C)C(C)C)o1,inactive: 7.4%
14,CC1CN(S(=O)(=O)c2ccc(C(=O)N3CCc4ccccc43)cc2)CC(C)O1 (stereo unspecified),inconclusive: 8.6%
15,Cc1cccc(N2C(=O)NC(=O)/C(=C\c3ccc(N4CCOCC4)cc3)C2=O)c1,inconclusive: 37.4%
16,Cn1cc(S(=O)(=O)N2CCc3ccccc3C2)c(=O)n(C)c1=O,inactive: 3.9%
17,CNc1ccn(C2CCCO2)c(=O)n1 (stereo unspecified),inconclusive: -31.9%
18,NC(c1ccccc1)c1csc(Nc2ccc(C(F)(F)F)cn2)n1 (stereo unspecified),inactive: -12.8%
19,FC(F)(F)c1ccc(Cl)c(-n2c(-c3cc(-c4ccco4)[nH]n3)n[nH]c2=S)c1,inconclusive: 30.5%
20,Cc1nn(CC(=O)Nc2ccc3c(c2)nc(CN2CCCCC2)n3C)c(=O)c2ccccc12,inconclusive: -17.6%
21,N#Cc1ccc(C(=O)NN2C(=O)NC3(CCCCC3)C2=O)cc1,inconclusive: -12.3%
22,O=c1cc(N2CCN(Cc3ccccc3)CC2)[nH]c(=O)n1-c1ccc(Br)cc1,inactive: -6%
23,CC1(C)CC(N=C2C([N+](=O)[O-])=CC=C3C2=NC2(CCCCC2)N3O)CC(C)(C)N1,inconclusive: -107%

row,SMILES,inhibition
1,COc1ccc(C(=O)NN/C(C)=C/C(=O)c2ccccc2)cc1,inconclusive: -21.1%
2,O=C(N/N=C/c1cccnc1)c1cccc(N2CCCC2=O)c1,inconclusive: -32.1%
3,COc1ccc(C)cc1S(=O)(=O)N(C)CC(=O)N1CCCC1,inconclusive: 4.1%
4,COc1ccccc1C(=O)COC(=O)CCCN=C1NS(=O)(=O)c2ccccc21,inconclusive: -1.9%
5,CCCCCCCCN1C(=O)[C@H](CC(=O)NCCCOCCCC)C[C@@]2(C(=O)OC)CCCCC=C12,inactive: -3.9%
6,NNC(=O)c1nnn(-c2nonc2N)c1CN1CCCC1,inconclusive: -0.4%
7,O=C(Nc1ccccc1F)c1cccc(C(=O)Nc2ccccc2F)c1,inconclusive: -19.4%
8,NS(=O)(=O)c1ccc(NNC(=O)c2cccs2)cc1,inconclusive: 12.7%
9,CCCCNC(=O)N1CCN(Cc2cccc(F)c2)CC1,inactive: 0.5%
10,COc1ccc(-c2nnc(CSc3nnc(-c4ccncc4)n3C3CCCCC3)o2)cc1OC,inactive: -1.1%
11,COc1ccc(OC)c(S(=O)(=O)N2CCc3ccccc32)c1,inconclusive: -47%
12,COc1ccc(-c2nc3ccc(C)cc3c(=O)o2)cc1OC,inconclusive: 29.4%
13,Cc1ccc(C(=O)NC2CCN(CC(=O)Nc3ccccc3Cl)CC2)cc1,inconclusive: -21.3%
14,CCOC(=O)CCCCCC(=O)Nc1ccc2c(c1)CC(=O)N([C@H](C)CO)C[C@H](C)[C@H](CN(C)S(=O)(=O)c1ccc(OC)cc1)O2,inactive: -2.2%
15,O=C(c1ccccc1F)N(Cc1ccccc1)Cc1ccccc1,inconclusive: 7.3%
16,O=C(COC(=O)CCC(=O)c1ccc(F)cc1)Nc1ccc(Cl)cn1,inconclusive: 12.7%
17,CCc1ccc(CNCCc2c[nH]c3ccccc23)cc1,inconclusive: -14.7%
18,COc1ccc(-c2cc3c(c4c2ccn4C)C2CCC3O2)cn1 (stereo unspecified),inactive: -0.4%
19,O=C(OCN1C(=O)c2ccccc2C1=O)c1cccc(OC(F)F)c1,inactive: -8.2%
20,O=C(O)CCn1c(SCCOc2ccccc2)nc2ccccc21,inconclusive: -33%
21,COc1ccc(-n2c(-c3ccccc3)nc(=S)c3c2CCCC3)cc1,inconclusive: 22.3%
22,COc1ccc(OCC(=O)N/N=C/c2cccn2-c2cccc(C(=O)O)c2)cc1,inactive: -6%
